The results in this text go back to patent US11592453B2, “Personalized metabolomic profiling of specialized pro-resolving mediators” (THE BRIGHAM AND WOMEN'S HOSPITAL, INC., priority 2016, dated 2023).

The structures appear in SMILES notation.

The test system of data set [1] is prostaglandin, thromboxane and SPM production in human whole blood. Nature of the data set: LM metabololipidomics of human whole blood during coagulation in the presence of indomethacin. In kind it is cell-based. Conditions: mean of six donors; for LM concentration Avg, Indomethacin t = 0 h: 0 h after coagulation in the presence of indomethacin; for LM concentration Avg, Indomethacin t = 0.25 h: 0.25 h after coagulation in the presence of indomethacin; for LM concentration Avg, Indomethacin t = 0.5 h: 0.5 h after coagulation in the presence of indomethacin; for LM concentration Avg, Indomethacin t = 1 h: 1 h after coagulation in the presence of indomethacin; for LM concentration Avg, Indomethacin t = 3 h: 3 h after coagulation in the presence of indomethacin; for LM concentration Avg, Indomethacin t = 6 h: 6 h after coagulation in the presence of indomethacin; for LM concentration Avg, Indomethacin t = 24 h: 24 h after coagulation in the presence of indomethacin.

Data set [2] relates to SPM production in human whole blood. Nature of the data set: SPM and eicosanoid production during coagulation with heparin, eptifibatide, ADA, celecoxib or BAI. In kind it is cell-based. The following applies: coagulation with 200 mU ADA. On the procedure: FIG. 2 illustrates regulators of SPM formation in human blood. (A to E) Freshly drawn human peripheral blood (4 ml) containing heparin (10 U/ml) was placed in polypropylene tubes (A) whereas human peripheral blood without anticoagulant was placed in silicone-coated tubes (B to E) and incubated at 37° C. for the time course of 0 to 24 hours (see Example 1, Materials and Methods). The samples were then subjected to snap-freezing for extraction and LC-MS/MS analysis. (A) Concentrations of the members of the SPM cluster (identified in FIG. 1) in samples treated without (Coag.) or with heparin (10 U/ml) during the incubation period. Data are means±SEM of three individual donors. (B) Left: Combined concentrations of the total SPM cluster, prostaglandins, and thromboxanes after 24 hours of coagulation in the presence or absence of the αIIbβ3 inhibitor eptifibatide (Eptifib.; 20 μM). Middle: Clot volumes after 24 hours of coagulation of the indicated samples. Right: Representative clot images. Data are means±SEM of three individual donors. (C) Concentrations of total SPMs and of the indicated individual SPMs after 24 hours of coagulation in the presence or absence of 200 mU ADA. Data are means±SEM of three individual donors. *P<0.05, **P<0.01 by ratio t-test. (D) Top: LC-MS/MS measurements of adenosine concentrations in whole blood at the indicated time points during coagulation in the presence or absence of ADA. **P<0.01 when compared to the zero-hour time point. Bottom: Flow cytometric analysis of the percentage of neutrophil-platelet aggregates, which were defined as being double-positive for CD16 and CD42b, in whole blood allowed to coagulate for the indicated times in the absence (Coag.) or presence of ADA. Data are means±SEM of five individual donors. *P<0.05, **P <0.01 by student's t test. For dot plots and gating, see FIG. 7B. (E) MS/MS fragmentation profiles with diagnostic ions for the indicated SPMs identified in (C). (F) Left: PCA score plot. Red denotes +ADA for 1 hour; yellow, coagulation for 1 hour; green, coagulation for 24 hours; blue, +ADA for 24 hours. […]

`CC/C=C\C[C@H](O)/C=C\C=C\C/C=C/C=C/C=C/C(O)[C@@H](O)CCC(=O)O` (stereo in doubt) [RvD4, resolvin D4]: in data set [1], the “LM concentration Avg, Indomethacin t = 0 h” value was “— ((—) denotes concentrations <0.1 pg/ml)”; the “LM concentration Avg, Indomethacin t = 0.25 h” value was “— ((—) denotes concentrations <0.1 pg/ml)”; the “LM concentration Avg, Indomethacin t = 0.5 h” value is recorded as “— ((—) denotes concentrations <0.1 pg/ml)”; the “LM concentration Avg, Indomethacin t = 1 h” value is “— ((—) denotes concentrations <0.1 pg/ml)”. In addition, in data set [1], the “LM concentration Avg, Indomethacin t = 3 h” value is given as “— ((—) denotes concentrations <0.1 pg/ml)”; the “LM concentration Avg, Indomethacin t = 6 h” value is listed as “— ((—) denotes concentrations <0.1 pg/ml)”; the “LM concentration Avg, Indomethacin t = 24 h” value was “— ((—) denotes concentrations <0.1 pg/ml)”. Besides, the “greatest concentrations of D-series resolvins in the ADA-treated samples” value (“greatest concentrations” below) in data set [2] came out at 447 pM.

On to `CC/C=C\C[C@H](O)/C=C/C=C\C[C@@H](O)/C=C/C=C/C=C\[C@@H](O)CCC(=O)O` [RvD3, Resolvin D3 (4S, 11R, 17S-trihydroxy-docosa-5Z, 7E, 9E, 13Z, 15E, 19Z-hexaenoic acid)], for which, in data set [1], the “LM concentration Avg, Indomethacin t = 0 h” value was “— ((—) denotes concentrations <0.1 pg/ml)”; the “LM concentration Avg, Indomethacin t = 0.25 h” value is recorded as “— ((—) denotes concentrations <0.1 pg/ml)”; the “LM concentration Avg, Indomethacin t = 0.5 h” value is “— ((—) denotes concentrations <0.1 pg/ml)”; the “LM concentration Avg, Indomethacin t = 1 h” value was “— ((—) denotes concentrations <0.1 pg/ml)”. In addition, in data set [1], the “LM concentration Avg, Indomethacin t = 3 h” value is “— ((—) denotes concentrations <0.1 pg/ml)”; the “LM concentration Avg, Indomethacin t = 6 h” value is on record as “— ((—) denotes concentrations <0.1 pg/ml)”; the “LM concentration Avg, Indomethacin t = 24 h” value was “— ((—) denotes concentrations <0.1 pg/ml)”. Besides, in data set [2], the “greatest concentrations” value came out at 150 pM.

`CC/C=C\C[C@H](O)/C=C/C=C\C/C=C\C/C=C\C=C\[C@@H](O)CCC(=O)O` [RvD6, resolvin D6]: in data set [1], the “LM concentration Avg, Indomethacin t = 0 h” value is on record as “— ((—) denotes concentrations <0.1 pg/ml)”; the “LM concentration Avg, Indomethacin t = 0.25 h” value is “— ((—) denotes concentrations <0.1 pg/ml)”; the “LM concentration Avg, Indomethacin t = 0.5 h” value is given as “— ((—) denotes concentrations <0.1 pg/ml)”; the “LM concentration Avg, Indomethacin t = 1 h” value is on record as “— ((—) denotes concentrations <0.1 pg/ml)”. In addition, in data set [1], the “LM concentration Avg, Indomethacin t = 3 h” value is listed as “— ((—) denotes concentrations <0.1 pg/ml)”; the “LM concentration Avg, Indomethacin t = 6 h” value is recorded as “— ((—) denotes concentrations <0.1 pg/ml)”; the “LM concentration Avg, Indomethacin t = 24 h” value is reported as “— ((—) denotes concentrations <0.1 pg/ml)”. The “greatest concentrations” value in data set [2] came out at 304 pM.
